For some assays here: Part of at least one peptide drawing is inferred or uncertain, most often the ends. For some assays here: At least one structure is not confirmed: it was looked up by name or label, or the drawing left a doubt. Where a SMILES comes first, the peptide text is derived from it. [ ]: non-standard residue; d: D form. ξ: configuration not given here. Abu(1-amidino-4-piperidyl) = N=C(N)N1CCC(CC[C@H](N)C(=O)O)CC1; dThr(3ξ) = CC(O)[C@@H](N)C(=O)O
What was measured:
[1] = test system: traumatic osteoarthritis model; test: MMT surgery traumatic osteoarthritis model, long-term (4-administration) treatment test; assay type: in vivo, SD rats; conditions: intra-articular injection on days 3, 7, 10 and 24 after MMT surgery; sacrificed day 31
[2] = test system: traumatic osteoarthritis model; test: MMT surgery traumatic osteoarthritis model, test for preventive efficacy; assay type: in vivo, SD rats; conditions: compared to the OA group; intra-articular injection 3 days and 1 day before MMT surgery; 0.1 mg/kg; sacrificed day 7
Procedure: In this example, a traumatic osteoarthritis model was established by performing a medial meniscus tear (MMT) surgery to verify the preventive effect of the PACE4 inhibitory peptides on OA. In the test for preventive efficacy, the PACE4 inhibitory peptide was administered via intra-articular injection 3 days and 1 day before the modeling surgery (i.e., a total of 2 administrations). In the following examples, the dosage of PACE4 inhibitory peptide was 0.1 mg/kg animal body weight.
Specifically, in the test for preventive efficacy, 24 SD rats were divided into 3 groups (including a control group, an OA modeling group (surgery group), and an OA modeling + preventive administration group (surgery group + drug intervention)), with 8 rats per group. For the OA modeling + preventive administration group, intra-articular injections were administered 3 days and 1 day before MMT surgery. Rats in each group were sacrificed on day 7 after modeling, and joint tissues were collected. Each PACE4 inhibitory peptide was tested individually to determine the preventive effect of each PACE4 inhibitory peptide. Among them, the polypeptide Ac-R-F-K-R-NH2 (control molecule) was selected as a control example. […]

[3] = test system: traumatic osteoarthritis model; test: MMT surgery traumatic osteoarthritis model, test for therapeutic efficacy; assay type: in vivo, Sprague Dawley (SD) rats
Procedure: In this example, a traumatic osteoarthritis model was established by performing a medial meniscus tear (MMT) surgery to verify the therapeutic effect of the PACE4 inhibitory peptides on OA. In the test for therapeutic efficacy, the injections were administered on day 3 and day 10 after the surgical modeling (i.e., a total of 2 administrations).
Specifically, in the test for therapeutic efficacy, 24 Sprague Dawley (SD) rats were divided into 3 groups (including a control group, an OA modeling group (surgery group), and an OA modeling + therapeutic administration group (surgery group + drug intervention)), with 8 rats per group. For the OA modeling + therapeutic administration group, intra-articular injections were administered on day 3 and day 10 after MMT surgery. Rats in each group were sacrificed on day 14 after modeling, and joint tissues were collected. Each PACE4 inhibitory peptide was tested individually to determine the therapeutic effect of each PACE4 inhibitory peptide. Among them, the polypeptide Ac-R-F-K-R-NH2 (control molecule) was selected as a control example.
Cartilage tissue was collected from each group as samples. […] Safranin O-fast green staining was performed, and the cartilage degeneration was assessed using OARSI scoring. […]

[4] = target: T1, PACE4 (Homo sapiens, UniProt P29122); test: PACE4 enzyme inhibition experiment (fluorogenic substrate, competitive inhibition); assay type: biochemical; conditions: substrate pyroGlu-Arg-Val-Lys-Arg-methyl-coumaryl-7-amide 100 µM, pH 6.5, 37°C, 60 min
T1 sequence (P29122 150-969): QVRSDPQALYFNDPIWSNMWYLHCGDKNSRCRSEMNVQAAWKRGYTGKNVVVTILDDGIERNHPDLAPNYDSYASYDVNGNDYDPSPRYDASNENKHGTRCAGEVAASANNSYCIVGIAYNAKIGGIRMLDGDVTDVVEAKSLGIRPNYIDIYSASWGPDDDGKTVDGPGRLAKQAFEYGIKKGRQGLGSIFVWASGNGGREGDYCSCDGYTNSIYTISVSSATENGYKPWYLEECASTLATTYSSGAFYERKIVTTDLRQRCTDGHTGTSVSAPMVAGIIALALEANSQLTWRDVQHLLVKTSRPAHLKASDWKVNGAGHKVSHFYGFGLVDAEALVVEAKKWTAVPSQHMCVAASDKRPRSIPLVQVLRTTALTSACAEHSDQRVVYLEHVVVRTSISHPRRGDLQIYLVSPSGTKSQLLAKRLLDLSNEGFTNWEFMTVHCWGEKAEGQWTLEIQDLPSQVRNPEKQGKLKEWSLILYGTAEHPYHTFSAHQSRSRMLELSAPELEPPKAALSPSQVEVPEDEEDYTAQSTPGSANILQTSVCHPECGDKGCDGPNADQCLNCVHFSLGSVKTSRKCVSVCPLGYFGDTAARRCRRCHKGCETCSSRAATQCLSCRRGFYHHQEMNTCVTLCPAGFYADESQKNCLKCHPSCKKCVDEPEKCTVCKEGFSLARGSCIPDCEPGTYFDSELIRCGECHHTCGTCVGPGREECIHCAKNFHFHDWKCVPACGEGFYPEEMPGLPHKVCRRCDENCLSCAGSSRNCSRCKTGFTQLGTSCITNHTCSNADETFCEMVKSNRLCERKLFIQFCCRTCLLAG
Procedure: The PACE4 inhibitory peptides obtained from the above example were subjected to in vitro assay of PACE4 inhibitory effect. The specific steps were as follows: the PACE4 enzyme inhibition experiment was performed in a solution containing 20 mM Bis-Tis at pH 6.5, 1 mM CaCl2, and 1.8 mg/mL BSA. All assays were performed using pyroGlu-Arg-Val-Lys-Arg-methyl-coumaryl-7-amide (Bachem, CA) (100 µM) as the substrate. The assay was conducted at 37°C for 60 min. A Gemini EM 96-well fluorescence spectrometer (Molecular Devices, CA) (Ex: 370 nm, Em: 460 nm) was used. The PACE4 inhibitory peptide involved in the present patent was added to the test solution at different concentrations for competitive inhibition assay to determine the IC50 value of the peptide.

SMILES | OARSI score reduced, 4-administration treatment test [1] [%] | OARSI score reduced, preventive test [2] [%] | OARSI score reduced, therapeutic test ([3]; compared to the OA group, intra-articular injection on day 3 and day 10 after MMT surgery, sacrificed day 14) [%] | TRAP staining, osteoclast formation in subchondral bone, therapeutic test ([3]; day 14 after MMT surgery) | IC50 [4] [nM]
CC(=O)N[C@H](CCCNC(=N)N)C(=O)N[C@@H](CCCNC(=N)N)C(=O)N[C@@H](CCC1CCN(C(=N)N)CC1)C(=O)N[C@@H](CCCCN)C(=O)N[C@@H](CCCNC(=N)N)C(=O)N[C@@H](C(N)=O)C(C)O (some centres unmarked) [Ac-dR-R-A(4-Pip)-K-R-dT-NH2] (Ac-[dR]R[Abu(1-amidino-4-piperidyl)]KR[dThr(3ξ)]-NH2) | 48.1 | 20 | 40.2 | slightly inhibited osteoclast formation in subchondral bone | 
C[C@H](O)[C@@H](NC(=O)[C@H](CCCNC(=N)N)NC(=O)[C@H](CCCCN)NC(=O)[C@H](CCC1CCN(C(=N)N)CC1)NC(=O)[C@H](CCCNC(=N)N)NC(=O)[C@@H](CCCNC(=N)N)NC(=O)[C@@H]1CCCN1)C(N)=O [P-dR-R-A(4-Pip)-K-R-dT-NH2] (H-P[dR]R[Abu(1-amidino-4-piperidyl)]KR[dT]-NH2) |  |  |  |  | 70

— patent publication EP4789680A1, “NOVEL PACE4 INHIBITOR AND USE THEREOF IN ANTI-OSTEOARTHRITIS” (Inflamax Pharmaceuticals Limited, priority 2023, dated 2025)
